Results reported in the supplement of paper PMC4604168 (melanoma cell lines).
Some of the results follow. Many values rest on one well or one pass, so single values are uncertain.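 Imaging used 1,536-well plates; nuclei positive for cleaved PARP by antibody were divided by total DNA-stained nuclei to yield the apoptosis fraction. Doses for screening kept most cells viable, and cell lines differ markedly in resting and induced cleaved-PARP levels.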

Assays:
Test in all cases: cleaved PARP positive nuclei fraction relative to DMSO control; melanoma cells; higher = more apoptosis
Details in all cases: library dose: low library concentration; 72 h
501Mel = system: 501Mel
A101D = system: A101D
A2058 = system: A2058
A375 = system: A375
C32 = system: C32
CBRC008 = system: CBRC008 (line from a melanoma biopsy)
CBRC013 = system: CBRC013 (line from a melanoma biopsy)
CBRC014 = system: CBRC014 (line from a melanoma biopsy)
CBRC016 = system: CBRC016 (line from a melanoma biopsy)
CBRC017 = system: CBRC017 (line from a melanoma biopsy)
COLO792 = system: COLO792
COLO800 = system: COLO800
COLO829 = system: COLO829
G361 = system: G361
IPC-298 = system: IPC-298
IST-MEL1 = system: IST-MEL1
LB2518-MEL = system: LB2518-MEL
LOXIMVI = system: LOXIMVI
MEL-HO = system: MEL-HO

| Structure (SMILES) | cleaved PARP positive nuclei fraction (501Mel) [%] | cleaved PARP positive nuclei fraction (A101D) [%] | cleaved PARP positive nuclei fraction (A2058) [%] | cleaved PARP positive nuclei fraction (A375) [%] | cleaved PARP positive nuclei fraction (C32) [%] | cleaved PARP positive nuclei fraction (CBRC008) [%] | cleaved PARP positive nuclei fraction (CBRC013) [%] | cleaved PARP positive nuclei fraction (CBRC014) [%] | cleaved PARP positive nuclei fraction (CBRC016) [%] | cleaved PARP positive nuclei fraction (CBRC017) [%] | cleaved PARP positive nuclei fraction (COLO792) [%] | cleaved PARP positive nuclei fraction (COLO800) [%] | cleaved PARP positive nuclei fraction (COLO829) [%] | cleaved PARP positive nuclei fraction (G361) [%] | cleaved PARP positive nuclei fraction (IPC-298) [%] | cleaved PARP positive nuclei fraction (IST-MEL1) [%] | cleaved PARP positive nuclei fraction (LB2518-MEL) [%] | cleaved PARP positive nuclei fraction (LOXIMVI) [%] | cleaved PARP positive nuclei fraction (MEL-HO) [%] |
| --- | --- | --- | --- | --- | --- | --- | --- | --- | --- | --- | --- | --- | --- | --- | --- | --- | --- | --- | --- |
| Cn1c(Nc2ccc(C(F)(F)F)cc2)nc2cc(Oc3ccnc(-c4ncc(C(F)(F)F)[nH]4)c3)ccc21 + Cn1cncc1[C@@](N)(c1ccc(Cl)cc1)c1ccc2c(c1)c(-c1cccc(Cl)c1)cc(=O)n2C [tipifarnib] (first compound 0.08 µM, partner dose 0.01 µM) | 552 | 137 | 246 | 1830 | 126 | 190 | 112 | 108 | 237 | 154 | 487 | 84.9 | 79.4 | 212 | 120 | 360 | 246 | 139 | 171 |
| C[C@]1(c2nc3c(C(N)=O)cccc3[nH]2)CCCN1 [Veliparib] + OCCn1cc(-c2cnc3nnn(Cc4ccc5ncccc5c4)c3n2)cn1 [PF04217903] (first compound 1.4 µM, partner dose 1 µM) | 129 | 160 | 107 | 150 | 90.2 | 47.6 | 146 | 99.7 | 187 | 101 | 90.6 | 67.8 | 102 | 146 | 22.9 | 97.7 | 223 | 172 | 133 |
| C[C@]1(c2nc3c(C(N)=O)cccc3[nH]2)CCCN1 [Veliparib] + CC1(C)NC(=O)N(c2ccc([N+](=O)[O-])c(C(F)(F)F)c2)C1=O [nilutamide] (first compound 1.4 µM, partner dose 1 µM) | 81.6 | 64.6 | 309 | 67.1 | 186 | 156 | 184 | 90.8 | 54.1 | 90 | 88.1 | 128 | 20.5 | 37.2 | 62.7 | 44.7 | 50.4 | 95.2 | 71.4 |
| COCC[n+]1c2c(n(Cc3cnccn3)c1C)C(=O)c1ccccc1C2=O + Cc1cc(N2CCOCC2)cc2[nH]c(-c3c(NC[C@@H](O)c4cccc(Cl)c4)cc[nH]c3=O)nc12 [BMS536924] (first compound 0.0004 µM, partner dose 0.2 µM) | 338 | 171 | 274 | 97.1 | 219 | 1460 | 162 | 92.4 | 65.7 | 104 | 157 | 306 | 72.7 | 166 | 234 | 88 | 247 | 62 | 137 |
| CC(C)(C)c1cnc(CSc2cnc(NC(=O)C3CCNCC3)s2)o1 + CN(NC(=O)CC(=O)NN(C)C(=S)c1ccccc1)C(=S)c1ccccc1 [STA4783] (first compound 0.01 µM, partner dose 0.006 µM) | 119 | 149 | 139 | 3730 | 293 | 1310 | 131 | 806 | 283 | 229 | 163 | 121 | 145 | 128 | 62.7 | 60.5 | 402 | 168 | 36.8 |
| C[C@]1(c2nc3c(C(N)=O)cccc3[nH]2)CCCN1 [Veliparib] + CN(C)S(=O)(=O)c1ccc2c(c1)/C(=C/c1cc3c([nH]1)CCCC3)C(=O)N2 [SU6656] (first compound 1.4 µM, partner dose 0.4 µM) | 134 | 292 | 122 | 254 | 134 | 131 | 183 | 109 | 51.1 | 110 | 45.1 | 87.8 | 54.5 | 107 | 46 | 33.3 | 104 | 198 | 207 |
| OCc1c[nH]c2ccccc12 [Indole-3-carbinol] + Cn1cncc1[C@@](N)(c1ccc(Cl)cc1)c1ccc2c(c1)c(-c1cccc(Cl)c1)cc(=O)n2C [tipifarnib] (first compound 0.8 µM, partner dose 0.01 µM) | 91.6 | 93.2 | 77.7 | 80.2 | 47.9 | 159 | 68.5 | 95.9 | 144 | 108 | 155 | 70.1 | 112 | 109 | 92.3 | 70.7 | 120 | 153 | 111 |
| Cn1c(Nc2ccc(C(F)(F)F)cc2)nc2cc(Oc3ccnc(-c4ncc(C(F)(F)F)[nH]4)c3)ccc21 + NCC(=O)Nc1ccc(-n2nc(C(F)(F)F)cc2-c2ccc3c(ccc4ccccc43)c2)cc1 [OSU03012] (first compound 0.08 µM, partner dose 1 µM) | 227 | 289 | 54.8 | 14000 | 29.1 | 165 | 152 | 84.6 | 399 | 85.2 | 434 | 54.8 | 18.6 | 256 | 339 | 274 | 186 | 147 | 367 |
| Nc1cccc2c1CN(C1CCC(=O)NC1=O)C2=O (stereo not drawn) [lenalidomide] + Cc1cc(N2CCOCC2)cc2[nH]c(-c3c(NC[C@@H](O)c4cccc(Cl)c4)cc[nH]c3=O)nc12 [BMS536924] (first compound 1 µM, partner dose 0.2 µM) | 42.7 | 120 | 93.5 | 268 | 171 | 358 | 97.3 | 92.9 | 60.2 | 107 | 28.8 | 122 | 75.5 | 104 | 49.1 | 185 | 84.7 | 217 | 74.2 |
| C#Cc1cccc(Nc2ncnc3cc(OCCOC)c(OCCOC)cc23)c1 [erlotinib] + O=C(Nc1cccc(Cl)c1)Nc1ncc(CCNc2ncnc3ccsc23)s1 [SNS314] (first compound 0.8 µM, partner dose 0.0008 µM) | 76 | 97 | 95.4 | 54.1 | 140 | 66.1 | 102 | 190 | 23.5 | 120 | 149 | 58.9 | 45.3 | 65.7 | 91.8 | 56.8 | 215 | 27.7 | 109 |
| COCC[n+]1c2c(n(Cc3cnccn3)c1C)C(=O)c1ccccc1C2=O + C[C@@H]1CCN(C(=O)CC#N)C[C@@H]1N(C)c1ncnc2[nH]ccc12 [CP690550] (first compound 0.0004 µM, partner dose 1 µM) | 122 | 127 | 202 | 228 | 52.3 | 510 | 94.6 | 180 | 222 | 91.6 | 387 | 331 | 149 | 72.9 | 49 | 1280 | 28.7 | 2100 | 143 |
| CC(C)(C)c1cnc(CSc2cnc(NC(=O)C3CCNCC3)s2)o1 + CN(C)S(=O)(=O)c1ccc2c(c1)/C(=C/c1cc3c([nH]1)CCCC3)C(=O)N2 [SU6656] (first compound 0.01 µM, partner dose 0.4 µM) | 78.3 | 106 | 167 | 317 | 169 | 106 | 94.3 | 106 | 129 | 209 | 279 | 71.3 | 107 | 111 | 367 | 264 | 93 | 95.1 | 134 |
| Nc1cccc2c1CN(C1CCC(=O)NC1=O)C2=O (stereo not drawn) [lenalidomide] + O=C(O)c1ccc(-c2c[nH]c3ncc(-c4ccccc4)cc23)cc1C1CCCC1 [GSK650394] (first compound 1 µM, partner dose 0.16 µM) | 74.1 | 68.6 | 166 | 107 | 83.7 | 357 | 119 | 111 | 197 | 113 | 124 | 92.9 | 118 | 84.5 | 64 | 140 | 99 | 105 | 64.5 |
| OCc1c[nH]c2ccccc12 [Indole-3-carbinol] + CN(NC(=O)CC(=O)NN(C)C(=S)c1ccccc1)C(=S)c1ccccc1 [STA4783] (first compound 0.8 µM, partner dose 0.006 µM) | 154 | 186 | 133 | 2630 | 101 | 3450 | 171 | 496 | 49.6 | 123 | 21.4 | 103 | 169 | 138 | 88.6 | 164 | 122 | 34.8 | 169 |
| O=C(CCCCCCC(=O)Nc1ccccc1)NO [vorinostat] + CN(NC(=O)CC(=O)NN(C)C(=S)c1ccccc1)C(=S)c1ccccc1 [STA4783] (first compound 0.08 µM, partner dose 0.006 µM) | 435 | 50.8 | 290 | 6580 | 121 | 785 | 129 | 445 | 466 | 162 | 256 | 221 | 190 | 212 | 88.6 | 114 | 298 | 49.1 | 69.4 |
| Cc1ccc(NC(=O)c2cccc(N(C)C)c2)cc1NC(=O)c1ccc(O)cc1 + COc1cc2c(Oc3ccc4[nH]c(C)cc4c3F)ncnc2cc1OCCCN1CCCC1 [cediranib] (first compound 2 µM, partner dose 0.4 µM) | 194 | 300 | 37.3 | 96.3 | 114 | 141 | 122 | 97.8 | 240 | 111 | 68.1 | 153 | 94 | 133 | 81.1 | 94.8 | 191 | 41.5 | 75.2 |
| Cn1nnc2c(C(N)=O)ncn2c1=O [temozolomide] + CN(NC(=O)CC(=O)NN(C)C(=S)c1ccccc1)C(=S)c1ccccc1 [STA4783] (first compound 2 µM, partner dose 0.006 µM) | 382 | 216 | 300 | 5980 | 240 | 4430 | 118 | 469 | 226 | 836 | 334 | 162 | 132 | 4960 | 116 | 65.3 | 271 | 72 | 72.2 |

A different layout for part of the listing above.
Structure (SMILES) | cleaved PARP positive nuclei fraction (501Mel) [%] | cleaved PARP positive nuclei fraction (A101D) [%] | cleaved PARP positive nuclei fraction (A2058) [%] | cleaved PARP positive nuclei fraction (A375) [%] | cleaved PARP positive nuclei fraction (C32) [%] | cleaved PARP positive nuclei fraction (CBRC008) [%] | cleaved PARP positive nuclei fraction (CBRC013) [%] | cleaved PARP positive nuclei fraction (CBRC014) [%] | cleaved PARP positive nuclei fraction (CBRC016) [%] | cleaved PARP positive nuclei fraction (CBRC017) [%] | cleaved PARP positive nuclei fraction (COLO792) [%] | cleaved PARP positive nuclei fraction (COLO800) [%] | cleaved PARP positive nuclei fraction (COLO829) [%] | cleaved PARP positive nuclei fraction (G361) [%] | cleaved PARP positive nuclei fraction (IPC-298) [%] | cleaved PARP positive nuclei fraction (IST-MEL1) [%] | cleaved PARP positive nuclei fraction (LB2518-MEL) [%] | cleaved PARP positive nuclei fraction (LOXIMVI) [%] | cleaved PARP positive nuclei fraction (MEL-HO) [%]
C[C@]1(c2nc3c(C(N)=O)cccc3[nH]2)CCCN1 [Veliparib] + OCCn1cc(-c2cnc3nnn(Cc4ccc5ncccc5c4)c3n2)cn1 [PF04217903] (first compound 1.4 µM, partner dose 1 µM) | 129 | 160 | 107 | 150 | 90.2 | 47.6 | 146 | 99.7 | 187 | 101 | 90.6 | 67.8 | 102 | 146 | 22.9 | 97.7 | 223 | 172 | 133
C[C@]1(c2nc3c(C(N)=O)cccc3[nH]2)CCCN1 [Veliparib] + CC1(C)NC(=O)N(c2ccc([N+](=O)[O-])c(C(F)(F)F)c2)C1=O [nilutamide] (first compound 1.4 µM, partner dose 1 µM) | 81.6 | 64.6 | 309 | 67.1 | 186 | 156 | 184 | 90.8 | 54.1 | 90 | 88.1 | 128 | 20.5 | 37.2 | 62.7 | 44.7 | 50.4 | 95.2 | 71.4
COCC[n+]1c2c(n(Cc3cnccn3)c1C)C(=O)c1ccccc1C2=O + Cc1cc(N2CCOCC2)cc2[nH]c(-c3c(NC[C@@H](O)c4cccc(Cl)c4)cc[nH]c3=O)nc12 [BMS536924] (first compound 0.0004 µM, partner dose 0.2 µM) | 338 | 171 | 274 | 97.1 | 219 | 1460 | 162 | 92.4 | 65.7 | 104 | 157 | 306 | 72.7 | 166 | 234 | 88 | 247 | 62 | 137
CC(C)(C)c1cnc(CSc2cnc(NC(=O)C3CCNCC3)s2)o1 + CN(NC(=O)CC(=O)NN(C)C(=S)c1ccccc1)C(=S)c1ccccc1 [STA4783] (first compound 0.01 µM, partner dose 0.006 µM) | 119 | 149 | 139 | 3730 | 293 | 1310 | 131 | 806 | 283 | 229 | 163 | 121 | 145 | 128 | 62.7 | 60.5 | 402 | 168 | 36.8
